Data as given in patent publication US8093218B2, “Peptide derived from vascular endothelial growth factor receptor-1 binding integrin α5β1 having proangiogenic activity” (Provincia Italiana della Congregazione dei Figli …, priority 2006, dated 2012).
Results are given in words; binding and its absence hold for the method and conditions named. Binding calls can cover weak binding; strength is not graded here.

Molecular target: purified integrin α5β1
Experiment: solid-phase binding test: purified integrin α5β1 on plates covered with peptides, anti-integrin antibody, colorimetric

B1: peptide 12 (NYLTHRQ, VEGFR-1 residues 219-225) (peptide)
peptide: NYLTHRQ
notes: Covalently linked to plates or coated on magnetic beads, or added in solution to HUVEC; also called P12; original peptide 12
B1 was tested, and the binding was “binds”.
